The text below walks through data of PubChem BioAssay AID1347423 (Functional Genomics Laboratory (NCATS/FGL), 2020).

In all, about 52,000 sequences went through this assay and about 210 (0.4%) were called active.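 Rule for the calls: active = gene whose silencing raises cell survival under the drug, median off-target-corrected z-score across its silencing RNAs 2 or more; inactive = the rest.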 This is one part of the list.

A short description of this assay: Resistance to Poly (ADP-Ribose) Polymerase inhibitor: Gene Identification via Genome-wide siRNA Screen. The note with it: mouse BRCA2 R2336H ES cells, olaparib, CellTiter-Glo viability; stronger effect = higher value. The method, boiled down:
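Mouse BRCA2 R2336H ES cells were reverse-transfected with siRNA (20 nM final), treated at 48 h with 500 nM olaparib, and read by CellTiter-Glo after 72 h. Scores: MAD-based z per siRNA, median per gene, seed off-target correction.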
Turning to “GGUGUUGGCUCACAACCAATT against 8430419L09Rik”, the z-score was inactive: -0.187. Under GGAGAUCCAUAUCAAUGGGTT against BC023151 stands inactive: -0.551; under “GGCUUUAAAAGCCUAUAUGTT against 4933400A11Rik”, inactive: 0.416; under GGAGGAAGAAGAGAAAGCCTT against Ppm1f, inactive: -0.1.

As for GGAGCAAUUAAAGGUGUCATT against Fpr-rs3, the z-score was inactive: -0.893. For “GGGUAACAUUAGGAGAGUUTT against B230342M21Rik”, the z-score is inactive: -2.04. With “GCAACUGUUACUUCUCAACTT against 4933421E11Rik” the figure was inactive: 0.651; with GGGACUAUAAGGAACCAGGTT against Fmo3, inactive: -1.19; with GCUUAACACAAAAUAAGGCTT against Tph2, inactive: -0.0384.

Turning to “GGCUUGAGACAUUUUUCAATT against A330080J22Rik”, the z-score is inactive: -0.00542. With GGUCAUAGUUUCUGAAUGATT against Cdx4 the figure was inactive: -1.2; with CCUAACUAUUGUAGUAGCATT against Thrsp, inactive: 0.821. With GGAAGCUACAUGCUGUUCCTT against Anln the figure was inactive: -0.833; with GGAGAAAAACAAAGAACACTT against Aif1, inactive: -0.0248. With GGUGCACCUGAUGUACAAGTT against Trim25 the figure was inactive: 0.549; with GGAGCGCGUGAAACUGUCUTT against Fbxw4, inactive: -2. AGGUCACCAAACGUGAUGATT against Rc3h1: the z-score is inactive: 0.725. For GGUUGAUGCCAUGAAGUCCTT against Acyp2, the z-score was inactive: 1.37. “CCAGGGUUUAGCCUUUUGATT against E030010A14”: the z-score was inactive: -0.0457. Under CGAUUUUUUUGCCCUCCUCTT against Rbpsuh stands inactive: -0.0113. Under GGCAGAGCCAGGAUGUCUUTT against Msmb stands inactive: -0.504; under GGAGAAUUAACUGUUCCUCTT against Kcnmb2, inactive: -1.2; under GGACAGUUUUAAAGAAGAATT against BC057893, inactive: -0.837.

As to GGUUAUUCUGGUACAGGUUTT against Fndc3, the z-score is inactive: -0.227.

Take “CGUUUUUAUGAGGAGGCCUTT against C330016O10Rik”: the z-score is inactive: -1.57. As to “GGUCUCAGACACCUGACUCTT against D630048P19Rik”, the z-score is inactive: 1.12. Under “GGCCAAUAAAGGAAAGAAATT against 4930578I06Rik” stands inactive: 0.00313; under GGAAGCUUUCCAAUGGCUGTT against Cyp2c29, inactive: -0.543. In the case of GGCUGAAAAAUGCUUGAUUTT against Dhdds, the z-score was inactive: 1.15. On to “GGUAAUCGUGUAUUCAUAUTT against 2410012M04Rik”, for which the z-score is inactive: -1.89. As for “CCAGUUUCAGAUCAGAUUATT against 6430604K15Rik”, the z-score is inactive: 0.508. Regarding “GCAUCUGCUAUGGGAAGACTT against 1810054D07Rik”, the z-score is inactive: 0.63. With GGACAGAGAACAGUUGAUGTT against Mrps9 the figure was inactive: -0.833.

For “CCUGUAGGUGGAAUAAACATT against 9430062J17Rik”, the z-score is inactive: -0.0774. Regarding GCUAGAGUAGCUUUGGGCATT against Glra3, the z-score is inactive: -0.402.

As to GCUGAUAAAGUUUUUGUCUTT against Tas2r104, the z-score is inactive: 0.3.

For GGAACUGGAGCAACUCAUUTT against Rutbc2, the z-score is inactive: -1.79. With CCAUUUAACCGUAAGACGUTT against Krtap8-2 the figure was inactive: 0.535. GGUGUUGUAUUCAGGCUGGTT against Slc41a1: the z-score was inactive: -0.387. On to GGACCAGUUACAGAUGUGGTT against Dyt1, for which the z-score is inactive: 0.056. With GGGAACACAGCUAUUUCCUTT against Olfr808 the figure was inactive: -0.275. GGCUAUGAGUUUUUCUAUUTT against Sart3: the z-score was inactive: 0.199. Under GGAUCCAAGGCAAAGAUGUTT against Fto stands inactive: 0.396; under “CCCACCCUAAAUUUAGGAUTT against D630048P19Rik”, inactive: 0.161; under “GCUAGUGAUGCUCUUACAGTT against D430038H04Rik”, inactive: 1.43.

For the sequence CCGGUACAAUUCCUGUGAUTT against Attp, the z-score is inactive: -2.15. Consider CCUUGAUGGAUGUUACCAATT against Asah1, for which the z-score is inactive: -0.196. With GCAUUAUGGAAAGUUGGAGTT against Gabra4 the figure was inactive: 2.35. Turning to “GGACUCAUGUUCAACACAGTT against 1500031M22Rik”, the z-score was inactive: 0.88. For “CCAUGGAAUUCAAUUCCUUTT against F830104D24Rik”, the z-score is inactive: 1.03. Take GGUAGCUGUCAACAAGGCATT against Akt2: the z-score was inactive: -0.0746.

GGACUUCUAUGAUUGGCUGTT against Por: the z-score is inactive: 0.217. Under GGAACCAAUCCACCUGAUUTT against Tas2r136 stands inactive: 0.424. Under GGCUAACCCUUUCAAGGAGTT against Cib1 stands inactive: -0.244; under GGAUUCAUAGACUUCAUAGTT against Impdh1, inactive: 1.98. Under GGAGACAUAUGAAGAGAUATT against Lsm3 stands inactive: -1.07. With “CGAGGGAUAAGAGUCUACGTT against D4Bwg1540e”, the z-score is inactive: -0.0629. With GGCUGACCUAAAGAAGGAGTT against Cnot3 the figure was inactive: 0.0216; with CCUGAAGCCUCAAUACACATT against Ugt1a1, inactive: 0.505. Under CGAAAGAAGUCAAUACAGATT against BC059177 stands inactive: 0.797. GGAGUUCACCAGCUACCAATT against Myoz3: the z-score was inactive: -0.000122.

In the case of CCAGGUGAUGUCUAGAUAATT against Edg8, the z-score was inactive: 0.116.

With GGAGUUUGGGAACACUUUGTT against Apoc1, the z-score was inactive: -0.11.

In the case of “CCUUGCUAGCCGCCACUUUTT against 0610038D11Rik”, the z-score was inactive: -2.03. With GGGAAAAUAUCUCAUAUCATT against LOC239447 the figure was inactive: -0.57; with CGGAGAAGUCACCAAUACUTT against Tll1, inactive: 0.566; with GGUUCUGAACACAUUUCCATT against Cyp2d13, inactive: 0.236. Under GGCCUGUUCUGAAGAACUATT against Gp2 stands inactive: 0.594; under GCAUCCUUCUGAGUUGAUGTT against Tollip, inactive: -0.272. Under GGGAACAAACCUUGAUUCUTT against Adam24 stands inactive: -1.2. “GGCUUCCACGUAAUUGUCCTT against E130112H22Rik”: the z-score is inactive: 0.38. On to GGAGAGAGCUCAGGAAUGATT against Rpp25, for which the z-score was inactive: -1.81. Under GGUGAUCAAACUGAUGGACTT against BC021523 stands inactive: 0.033; under CCUCUAUAAAUAGCAUAGUTT against Olfr860, inactive: -0.792. With GGAUGAAGAUGAAAAAGAUTT against Hoxc9 the figure was inactive: -1.44; with “GGGCCUUCAACUUAACUUUTT against 4930504E06Rik”, inactive: -1.91; with “GGUUGUUGCGCAAAUUUAATT against 4933425M15Rik”, inactive: 0.535. Turning to GGCUUCCAGAUGGACGAGATT against Prkag3, the z-score was inactive: -1.35.

GGCUAUUUCUUUUUAUGCUTT against Ak4: the z-score was inactive: 0.298. As to GGUAAAGAGCAGUGAUAUCTT against Pls3, the z-score was inactive: 0.274.

As for GGAAGAAAUUCGAUGAUGATT against Mcrs1, the z-score was inactive: 1.11. For GCACGCAUUAAAUUCAAAGTT against Magea9, the z-score was inactive: 0.467. Consider GGUCUUACGCAAAACGGUCTT against Csf1r, for which the z-score was inactive: 0.0802.

As for “GGAAGAAAGAUCUAUGAACTT against 2410012M04Rik”, the z-score is inactive: 0.789. Under GGGUUAGGUUUUGAUGUAATT against Abhd5 stands inactive: 0.198; under GCAACAUGAAGAUAAGUGCTT against Zbtb1, inactive: 0.522; under “GCAACUAUCUCCUAUAAGGTT against 8430416H19Rik”, inactive: -0.334. As for CCACUUUGGUGUAUAGUCATT against Hnrpab, the z-score is inactive: 0.572. With CCUUCUCCAUGUCAGAUCUTT against Col5a2 the figure was inactive: 0.0578; with CGCAGAAACACAGUCCACATT against Cntfr, inactive: 1.06; with GGAUCCAUUGAGCUCUGUCTT against Poln, inactive: 1.04. Consider “GCCGGUUUACUGCCUAAAATT against B930037P14Rik”, for which the z-score was inactive: -0.585.

In the case of GGACCUCAAGGCACUAAUATT against Car7, the z-score is inactive: -0.82. Take GAAAGAACUGUGGCUUCCCTT against Tff2: the z-score was inactive: -1.59. Under GCAGGAACCAUACUCUACATT against Centa1 stands inactive: -0.72. Under GGCUUGCAUCAAUAAAGAATT against Adam33 stands inactive: -1.8; under GGAAGUGGUGAUGUAAAUATT against Tpp2, inactive: -0.661; under GGCCAAAGAGUUCAGCCUATT against Prrx2, inactive: -1.61.

With GGAUACAUCCUUGCUGAAATT against Dapk1, the z-score was inactive: 2.5. Turning to AUGUGAUAGUGCCCAGCCUTT against Olfr884, the z-score was inactive: 1.48. Under GAAAGUGGCCGUAAAGGUGTT against Bapx1 stands inactive: -0.717; under GGUUUGAGGUAACACUAGATT against Vps39, inactive: 0.816. With “GUUUCGAUUAUGUUAAAGCTT against 2210403B10Rik” the figure was inactive: 1.32.
